According to patent US20210008220A1, “PHARMACEUTICAL COMPOSITIONS CONTAINING POLYROTAXANES” (UNIVERSITY OF GEORGIA RESEARCH FOUNDATION, INC., priority 2018, published 2021):
At least one compound was matched to its structure with a doubt left.

System: ferritin in IO J774A.1 mouse macrophage cells
Experiment: cellular ferritin by mouse ferritin ELISA in IO macrophage cells
Format: cell-based
Settings: 48 h

CC(=O)N(O)CCCCCNC(=O)CCC(=O)N(O)CCCCCNC(=O)CCC(=O)N(O)CCCCCN [DFO, Deferoxamine]
effect on ferritin concentrations in cells (10 μM DFO or equivalent): able to reduce ferritin concentrations
effect on ferritin concentrations in cells (50 μM DFO or equivalent): even more pronounced
